Measurements published in PubChem BioAssay AID493014 (National Center for Advancing Translational Sciences (NCATS), 2011).
About 170 (0.05%) of roughly 340,000 compounds were called active. The shares of active, inactive and inconclusive entries below differ from those in the screen. The call rests on the fitted dose curve; in most records, active means well fitted inhibition curve with a large enough effect in the signal ratio, with a control signal flat (not every such curve was filed as active); inconclusive means small, poorly fitted or top-dose-only effect, or effect the other way, or a change in a side signal; inactive means flat fitted curve, though single readings scatter; the % refers to the signal ratio. Where the call is inconclusive, the potency comes from a doubtful curve fit.

experiment: qHTS Assay to Find Inhibitors of Chronic Active B-Cell Receptor Signaling; conditions: ABC-DLBCL IkBa-CBG/CBR reporter, luminescence ratio (green luciferase fused to IkBa over red control in TMD8 lymphoma cells), 4 h; activity change, negative = inhibition: at 46.1 µM (top of the series);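 on activity change, negative = inhibition: plate controls were basal doxycycline-induced cells for no effect and cells given 10 µM MG132 for full effect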
How it was run: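 Concentration-response series (up to 46 uM) were applied to TMD8 dual-reporter cells for 4 h at 37C with doxycycline. Green/red ratio, after filter-overlap correction, defined %Activity; red signal alone was normalised to basal cells and zero luminescence.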
Potency means the concentration at half of the fitted maximal effect.

Row | SMILES | activity change, negative = inhibition | Potency
1 | COc1cc(C(=O)NCC(=O)OCCN2C(=O)c3ccccc3C2=O)cc(OC)c1OC | inactive: -16.2% | 
2 | Cc1ccc(OCCC(=O)OCC(=O)Nc2c(C)nn(-c3ccccc3)c2C)cc1 | inactive: -3.2% | 
3 | CCOC(=O)C1C(=O)CC(C)(O)C(C(=O)OCC)C1c1ccc(Br)cc1 (centres undefined) | inconclusive: 0.513% | 
4 | O=C(NN=C1C2CC3CC1CC(Cl)(C3)C2)c1ccccn1 |  | inconclusive: 31.6 µM [rising, single point]
5 | CC(=Nc1ccccc1)c1sc2ccccc2c1O | inconclusive: 0.382% | 
6 | COC(=O)COc1ccc(S(=O)(=O)Nc2ccc(C(N)=O)cc2)cc1C | inconclusive: -18.3% | 
7 | CC(=O)c1ccc(OCC(O)CN2CCN(CCN3C(=O)c4cccc5cccc(c45)C3=O)CC2)cc1 (centres undefined) |  | inconclusive: 29.1 µM [falling, single point]
8 | CCc1nc(CN2CCN(c3cc(C(F)(F)F)ccn3)CC2)c(C)[nH]1 | inactive: 7.49% | 
9 | O=C1CN(C(=O)c2ccc(Br)o2)C(c2ccccc2)c2cc(Cl)ccc2N1 (centres undefined) | inconclusive: -3.65% | 
10 | CCN1CCN(CCNC(=O)C2CCCN(Cc3nc(-c4cccc(Cl)c4)oc3C)C2)CC1 (centres undefined) | inconclusive: 15.5% | 
11 | O=C(COC(=O)c1ccccc1C(=O)OCC(=O)NCCc1c[nH]c2ccccc12)NCCc1c[nH]c2ccccc12 |  | inconclusive: 14.6 µM [falling, single point]
12 | Cc1ccc(OCc2nnc(SCC(=O)Nc3ccccc3C(C)C)o2)cc1 | inactive: -16.6% | 
13 | O=C(CSc1ccc(Cl)cc1)N/N=C/c1cccnc1 | inconclusive: 3.53% | 
14 | O=C(/C=C/c1cn(CC(O)CN2CCCCCC2)c2ccccc12)c1cccs1 (centres undefined) |  | inconclusive: 29.1 µM [falling, single point]
15 | Cc1cc(C)cc(N(C(=O)c2nsc(Cl)c2Cl)C(C(=O)NC2CCCC2)c2ccc(O)cc2)c1 (centres undefined) | inactive: 4.72% | 
16 | O=C(Nc1nccs1)c1cc(-c2ccccn2)nc2c(Cl)cccc12 | inconclusive: 3.82% | 
17 | Cc1ccc(NC(=O)c2ccccc2-c2ccc(C(F)(F)F)cc2)cc1S(=O)(=O)N1CCOCC1 | inconclusive: -18.6% | 
18 | O=C(N/N=C/c1cccc2cccnc12)[C@H]1C[C@@H]1c1ccccc1 |  | inconclusive: 17.8 µM [falling, single point]
19 | O=C(NC1(C(F)(F)F)NC(=O)N(C2CCCCC2)C1=O)C1CC1 (centres undefined) | inconclusive: 4.25% | 
20 | O=C(CSc1nc(SCC(=O)NCc2ccccc2)n(-c2ccccc2)n1)NCc1ccccc1 | inconclusive: 5.65% | 
21 | COc1ccc2oc(-c3ccccc3)c(C(=O)O)c2c1 |  | inconclusive: 10 µM [falling, partial curve, poor fit]
22 | O=C(Nc1ccccn1)c1ccc([N+](=O)[O-])o1 | inactive: 1.27% | 
23 | Cc1ccc(CSc2nc3nc(C)cc(C)c3c(=O)[nH]2)cc1 | inconclusive: 3% | 
24 | CSc1nc(N)nc(SCC(=O)c2ccc(C)cc2)c1C#N | inconclusive: -8.28% | 
25 | COc1ccc(NC(=O)/C=C/c2c(Cl)nc3ccccn23)cc1 |  | inconclusive: 14.1 µM [falling, partial curve, poor fit]
26 | CC(C)(NO)/C(=N\O)c1ccc(Cl)cc1 | inconclusive: 4.98% | 
27 | COc1ccc(C2=NN(C(=O)CCC(=O)O)C(c3ccccc3OC)C2)cc1 (centres undefined) |  | inconclusive: 15.8 µM [falling, partial curve, poor fit]

Filtered by structure: the compounds so far containing a CF3 group (three)
Row | SMILES | activity change, negative = inhibition | Potency
8 | CCc1nc(CN2CCN(c3cc(C(F)(F)F)ccn3)CC2)c(C)[nH]1 | inactive: 7.49% | 
17 | Cc1ccc(NC(=O)c2ccccc2-c2ccc(C(F)(F)F)cc2)cc1S(=O)(=O)N1CCOCC1 | inconclusive: -18.6% | 
19 | O=C(NC1(C(F)(F)F)NC(=O)N(C2CCCCC2)C1=O)C1CC1 (centres undefined) | inconclusive: 4.25% | 

Going on with the list.

Row | SMILES | activity change, negative = inhibition | Potency
28 | Fc1ccccc1COc1ccccc1CNCc1ccncc1 | inconclusive: 5.88% | 
29 | CCOC(=O)c1sc(N(Cc2ccccc2)C(=O)CSc2nnc(C3CC3)n2N)nc1C | inactive: -2.85% | 
30 | O=C(O)c1[nH]c2ccccc2c1NS(=O)(=O)Cc1ccccc1 | inactive: 12.1% | 
31 | O=C(O)CNC(=O)C(CS)Cc1ccccc1 (centres undefined) |  | inconclusive: 16.4 µM [falling, partial curve]
32 | O=C(CSCc1ccccc1Cl)N1CCN(c2ccccn2)CC1 | inconclusive: 28.2% | 
33 | COC(=O)c1ccc(NC(=O)Cn2c(-c3nonc3N)nc3ccccc32)cc1 | inactive: -0.908% | 
34 | Cc1ccc2c(c1)C1CC(C)(O2)N(c2cccc(C(=O)N3CCN(c4ccccn4)CC3)c2)C(=O)N1 (centres undefined) | inconclusive: 2.89% | 
35 | CC(=O)C[C@H](O)CC(=O)[C@H]1OC(=O)[C@H](C)C/C=C\Cc2ccccc21 | inactive: 8.7% | 
36 | CCCN(c1ccccc1F)S(=O)(=O)c1cc(-c2cc(C)no2)ccc1OC | inconclusive: 4.78% | 
37 | Cc1nonc1C(=O)N/N=C/c1ccc(O)c(O)c1 |  | inconclusive: 16.4 µM [falling, single point]
38 | O=C1c2ccccc2-c2cccc(NS(=O)(=O)c3ccc(C(F)(F)F)cc3)c21 | inactive: -2.71% | 
39 | O=C(C1CCCCC1)N1CCN(S(=O)(=O)c2ccc(Br)cc2)CC1 | inconclusive: -8.56% | 
40 | CCN(CC)C(=O)CC(c1ccc(N(C)C)cc1)c1c(OC)cc(OC)c2ccc(=O)oc12 (centres undefined) | inconclusive: -0.719% | 
41 | O=[N+]([O-])c1cccc(CN2CCN(c3ncccn3)CC2)c1 | inconclusive: 9.65% | 
42 | COc1ccc(NC(=O)Cn2nnc(C(=O)NCc3ccc4c(c3)OCO4)c2N)c(OC)c1 | inconclusive: 7.94% | 
43 | N#Cc1c(N2C(=O)c3ccc(C(=O)O)cc3C2=O)sc2c1CCCC2 |  | inconclusive: 17.8 µM [falling, single point]
44 | O=C(NCc1ccco1)C1CCN(Cc2ccc(F)cc2)CC1 | inconclusive: 35% | 
45 | CS(=O)(=O)N(CC(=O)Nc1ccc(F)c(F)c1)c1cccc([N+](=O)[O-])c1 | inconclusive: 5.42% | 
46 | O=C1N/C(=N\N=C\c2cccs2)SC1Cc1cccc(Cl)c1 (centres undefined) |  | inconclusive: 29.1 µM [falling, single point]
47 | Cc1ccc2c(c1)-n1c(nc3ccc(C)cc3c1=O)C(Cc1ccc(O)cc1)NC2=O (centres undefined) | inconclusive: 0.187% | 
48 | O=C(c1cn(-c2ccccc2)nc1-c1cccnc1)N1CCCCC1 | inconclusive: -0.735% | 
49 | CCCNC(=O)Cc1c(C)n(C(=O)c2ccc(Cl)cc2)c2ccc(OC)cc12 | inconclusive: -9.71% | 
50 | COc1ccc(NS(=O)(=O)c2cc(NC(=O)CNC(=O)c3cccc(OC)c3)ccc2C)cc1 | inconclusive: -5.56% | 
51 | CC(C)CNC(=S)NNC(=O)c1csc2c1CCC(C)C2 (centres undefined) | inactive: -2.78% | 
52 | Cc1ccc(Cn2nnc3c(=O)[nH]c(C4CCN(S(=O)(=O)c5ccc(F)cc5)CC4)nc32)cc1 | inconclusive: 27.7% | 
53 | Cc1ccnc(NC(=O)CCC(=O)N(CC(=O)NC(C)(C)C)c2ccc3c(c2)OCO3)c1 | inconclusive: -25.8% | 
54 | CN(C)c1cccc(C(=O)OCC(=O)N(C)c2ccccc2)c1 | inactive: 4.3% | 

Row | SMILES | activity change, negative = inhibition | Potency
55 | CC1=C(C(=O)N2CCCC(C(=O)c3cccc4ccccc34)C2)OCCO1 (centres undefined) | inconclusive: 7.39% | 
56 | CC1=C(C(=O)OCc2ccccc2)C(c2cccs2)NC(=O)N1CCCC(=O)O (centres undefined) | inconclusive: 2.03% | 
57 | CCOc1cc(S(=O)(=O)N2CCCC2)ccc1Cl | inactive: -8.84% | 
58 | COc1ccc(C(=O)NCC(=O)NCC(=O)OCC(=O)C(C)(C)C)cc1 | inconclusive: 3.44% | 
59 | O=C(Nc1ccc(-c2csnn2)cc1)C(Cl)(Cl)Cl |  | inconclusive: 35.5 µM [falling, single point]
60 | CCN(C(=O)c1ccccc1F)c1nc(-c2ccc(OC)cc2)cs1 | inconclusive: 4.74% | 
61 | COc1ccc(NC(=O)Nc2cc(C)ccc2F)cc1 |  | inconclusive: 23.1 µM [falling, partial curve]
62 | COc1ccc(Cl)cc1NC(=O)CN(C)C(=O)CCCNC(=O)c1ccc(Cl)cc1 |  | inconclusive: 23.1 µM [falling, partial curve, poor fit]
63 | Cc1cccn2c(=O)c3cc(C(=O)NC(C)C)c(=N)n(Cc4ccncc4)c3nc12 | inconclusive: 17.3% | 
64 | Cc1cc(C)n(CCC(=O)Nc2ccc3c(c2)OCCO3)n1 |  | inconclusive: 20 µM [falling, partial curve, poor fit]
65 | C=CCn1c(SCC(O)Cn2c3ccccc3c3ccccc32)nnc1-c1ccco1 (centres undefined) | inconclusive: 0.195% | 
66 | COc1ccc(N=C(NN)c2ccc3ccccc3n2)cc1 |  | inconclusive: 29.1 µM [falling, single point]
67 | CCOC(=O)c1c(NC(=O)COC(=O)c2ccccn2)sc2c1CCC2 | inconclusive: -0.138% | 
68 | O=C(NC(=S)Nc1ccccc1N1CCN(C(=O)c2ccccc2)CC1)c1ccccc1F | inactive: 3.54% | 
69 | Cc1cc(C)cc(OCC(=O)O/N=C(\N)c2ccccn2)c1 |  | inconclusive: 18.4 µM [falling, partial curve]
70 | COc1ccccc1N(CC(O)Cn1c2ccccc2c2ccccc21)S(=O)(=O)c1ccccc1 (centres undefined) | inconclusive: 2.58% | 
71 | O=C(OCC(=O)N1CCc2ccccc2C1)c1c(F)cccc1Cl | inconclusive: -1.27% | 
72 | Cc1ccc(NC(=O)COn2nnc3ccc(S(=O)(=O)N(C)C)cc32)cc1F | inconclusive: -20.2% | 
73 | Cc1c(C2(O)CCCCC2)[nH]c2ncccc12 | inactive: -2.89% | 
74 | COc1cc(/C=C/C(=O)Nc2cccc(S(=O)(=O)NC3=NCCCCC3)c2)ccc1OCC#N |  | inconclusive: 23.1 µM [falling, single point]
75 | CC(Sc1nc(-c2ccccc2)cc(=O)[nH]1)C(=O)O (centres undefined) | inconclusive: -15.6% | 
76 | Cc1ccc2c(C)nc(NC3=NCN(Cc4ccccc4)CN3)nc2c1 | inconclusive: 6.14% | 
77 | Cc1ccc(-n2c(SCC(=O)Nc3cc(C)on3)nc3ccccc3c2=O)cc1 | inactive: -9% | 
78 | Cc1cc(NC(=O)/C=C/C(=O)N(c2ccccc2C)C(C(=O)NC2CCCC2)c2ccc(F)cc2)no1 (centres undefined) | inconclusive: -11.3% | 
79 | Cc1ccc(NC(=O)CC2COc3ccccc3O2)cc1 (centres undefined) | inconclusive: 3.22% | 

Random excerpt: 2 records from the list
Row | SMILES | activity change, negative = inhibition | Potency
65 | C=CCn1c(SCC(O)Cn2c3ccccc3c3ccccc32)nnc1-c1ccco1 (centres undefined) | inconclusive: 0.195% | 
75 | CC(Sc1nc(-c2ccccc2)cc(=O)[nH]1)C(=O)O (centres undefined) | inconclusive: -15.6% | 
